# Experimental data as given in PubChem BioAssay AID540256 (National Center for Advancing Translational Sciences (NCATS), 2011).
# In all, about 300,000 compounds went through this assay and about 3,700 (1.2%) were called active. The shares of active, inactive and inconclusive entries below differ from those in the screen. Calls come from the whole dose curve; tested in HEK293 cells. Potencies beside an inconclusive call are fits to weak or partial responses and may not hold up.
# Experiment: qHTS for Inhibitors of binding or entry into cells for Lassa Virus; note: nearly all actives have a fitted effect of over 50% in size
# Details: Lassa virus pseudotype entry inhibition, cell reporter; activity change, negative = inhibition: at 37.9 µM (top of the series) unless noted
# % is set by controls: 0 for no effect and ±100 for the full control effect; potency is the fitted concentration of half-maximal effect.
Structure (SMILES),"activity change, negative = inhibition",Potency
CCCn1c(/N=C/c2cc(OC)ccc2O)nc2ccccc21,inactive: 21.9%,
CCCCCCCNC(=O)C1CC(=O)N(C)C(=Nc2ccc(OC)cc2)S1 (stereo not given),,"inconclusive: 10 µM [inhibitor, partial curve]"
CCc1cccc(NC(=O)Cn2ncc3c([nH]c4ccc(C)cc43)c2=O)c1,,"inconclusive: 12.6 µM [activator, single point]"
CN(C)/C=C1/C=C(c2ccccc2)OC1=O,inactive: 1.44%,
Cc1ccc(OCCn2c(-c3ccc(Br)cc3)nc3ccccc3c2=O)cc1C,inactive: 6.04% [at 46.1 µM],
O=C1/C(=C/c2ccc([N+](=O)[O-])cc2)Oc2cc(O)ccc21,,"inconclusive: 4.47 µM [activator, single point]"
O=C(COC(=O)c1cc(Br)ccc1O)c1ccc(F)cc1,inactive: -4.24%,
CN1CCN(c2cc(N3CCNCC3)ccc2[N+](=O)[O-])CC1,,"inconclusive: 18.4 µM [inhibitor, single point]"
CCCCN(CC)CCCNC(=O)C1CCCN(c2ncnc3c2nc2n3CCCCC2)C1 (stereo not given),inactive: 15.7% [at 46.1 µM],
CC/C(=C\C=C\[C@@H]1C=C[C@@H]2CCC[C@H]2[C@@H]1C(=O)c1ccc[nH]1)[C@@H]1O[C@@H]([C@@H](C)C(=O)O)CC[C@@H]1C,,"inconclusive: 29.1 µM [inhibitor, single point]"
CCN(CC)CCn1c(-c2ccccc2)csc1=Nc1ccccc1,,"inconclusive: 12.6 µM [inhibitor, partial curve, poor fit]"
O=C(O)c1cnn2c(C(F)F)cc(C(F)F)nc12,,"inconclusive: 35.5 µM [activator, single point]"
NCCc1c[nH]c2ccccc12,,"inconclusive: 29.1 µM [activator, single point]"
COc1cc(S(=O)(=O)Nc2ccc(C)cc2)ccc1N=Cc1c(C)[nH]n(-c2ccccc2)c1=O,,"inconclusive: 35.5 µM [inhibitor, single point]"
CCCCC1(CC)SCC(=O)NC1=O (stereo not given),inactive: 17.4%,
O=C(Nc1ccc(Cl)c(S(=O)(=O)N2CCOCC2)c1)c1ccc(Cl)nc1,,"inconclusive: 35.5 µM [inhibitor, single point]"
Cc1cccc(N=C2NC(=O)/C(=C/C=C/c3ccco3)S2)c1C,,"inconclusive: 9.2 µM [inhibitor, partial curve]"
COc1cc(/C=N/NC(=S)NCCc2ccccc2)cc(OC)c1OC,,"inconclusive: 22.4 µM [inhibitor, single point]"
Cc1cc(C)nc(SCC(=O)Nc2ccnc3ccccc23)n1,,"inconclusive: 1 µM [inhibitor, full curve, poor fit]"
O=C(Nc1ncc(Cc2ccccc2Cl)s1)C1CCCO1 (stereo not given),,"inconclusive: 18.3 µM [inhibitor, single point]"
COc1ccc(CC(=O)Nc2ccc(S(=O)(=O)N3CCCC3)cc2)cc1OC,,"inconclusive: 11.2 µM [inhibitor, partial curve]"
CCOc1ccc(/C=C(/C#N)c2nnc(N3CCOCC3)n2-c2ccccc2)cc1OC,inactive: 0.0997% [at 46.1 µM],
CC(CNC(=O)C1CCN(S(=O)(=O)c2ccc3c(ccn3C)c2)CC1)c1ccccc1 (stereo not given),inactive: -8.8% [at 46.1 µM],
O=C(CSc1nc2c([nH]c3ccccc32)c(=O)n1-c1ccccc1)N1CCOCC1,inactive: -4.76% [at 46.1 µM],

# A section from the list above:
Structure (SMILES),"activity change, negative = inhibition",Potency
CCCCCCCNC(=O)C1CC(=O)N(C)C(=Nc2ccc(OC)cc2)S1 (stereo not given),,"inconclusive: 10 µM [inhibitor, partial curve]"
CCc1cccc(NC(=O)Cn2ncc3c([nH]c4ccc(C)cc43)c2=O)c1,,"inconclusive: 12.6 µM [activator, single point]"
CN(C)/C=C1/C=C(c2ccccc2)OC1=O,inactive: 1.44%,
Cc1ccc(OCCn2c(-c3ccc(Br)cc3)nc3ccccc3c2=O)cc1C,inactive: 6.04% [at 46.1 µM],
O=C1/C(=C/c2ccc([N+](=O)[O-])cc2)Oc2cc(O)ccc21,,"inconclusive: 4.47 µM [activator, single point]"
O=C(COC(=O)c1cc(Br)ccc1O)c1ccc(F)cc1,inactive: -4.24%,
CN1CCN(c2cc(N3CCNCC3)ccc2[N+](=O)[O-])CC1,,"inconclusive: 18.4 µM [inhibitor, single point]"
CCCCN(CC)CCCNC(=O)C1CCCN(c2ncnc3c2nc2n3CCCCC2)C1 (stereo not given),inactive: 15.7% [at 46.1 µM],
CC/C(=C\C=C\[C@@H]1C=C[C@@H]2CCC[C@H]2[C@@H]1C(=O)c1ccc[nH]1)[C@@H]1O[C@@H]([C@@H](C)C(=O)O)CC[C@@H]1C,,"inconclusive: 29.1 µM [inhibitor, single point]"
CCN(CC)CCn1c(-c2ccccc2)csc1=Nc1ccccc1,,"inconclusive: 12.6 µM [inhibitor, partial curve, poor fit]"
O=C(O)c1cnn2c(C(F)F)cc(C(F)F)nc12,,"inconclusive: 35.5 µM [activator, single point]"
NCCc1c[nH]c2ccccc12,,"inconclusive: 29.1 µM [activator, single point]"
COc1cc(S(=O)(=O)Nc2ccc(C)cc2)ccc1N=Cc1c(C)[nH]n(-c2ccccc2)c1=O,,"inconclusive: 35.5 µM [inhibitor, single point]"
CCCCC1(CC)SCC(=O)NC1=O (stereo not given),inactive: 17.4%,
O=C(Nc1ccc(Cl)c(S(=O)(=O)N2CCOCC2)c1)c1ccc(Cl)nc1,,"inconclusive: 35.5 µM [inhibitor, single point]"
Cc1cccc(N=C2NC(=O)/C(=C/C=C/c3ccco3)S2)c1C,,"inconclusive: 9.2 µM [inhibitor, partial curve]"
COc1cc(/C=N/NC(=S)NCCc2ccccc2)cc(OC)c1OC,,"inconclusive: 22.4 µM [inhibitor, single point]"
Cc1cc(C)nc(SCC(=O)Nc2ccnc3ccccc23)n1,,"inconclusive: 1 µM [inhibitor, full curve, poor fit]"
O=C(Nc1ncc(Cc2ccccc2Cl)s1)C1CCCO1 (stereo not given),,"inconclusive: 18.3 µM [inhibitor, single point]"
COc1ccc(CC(=O)Nc2ccc(S(=O)(=O)N3CCCC3)cc2)cc1OC,,"inconclusive: 11.2 µM [inhibitor, partial curve]"

# Additional results.

Structure (SMILES),"activity change, negative = inhibition",Potency
N#Cc1ccc(OCC(=O)N2CCN(S(=O)(=O)c3cccc(Cl)c3)CC2)cc1,inactive: -37.8%,
COc1ccc(NC(=O)c2c(F)cccc2Cl)cc1S(=O)(=O)N1CCOCC1,,"inconclusive: 0.708 µM [inhibitor, partial curve, poor fit]"
c1ccc(Cc2nc3ccccc3s2)cc1,inactive: 8.01% [at 46.1 µM],
O=C(COc1ccc(S(=O)(=O)NC2CCCCC2)cc1)NC1CCCC1,,"inconclusive: 0.366 µM [inhibitor, full curve, poor fit]"
COCCNC(=S)N1CCCC(CO)C1 (stereo not given),inactive: 10.2% [at 46.1 µM],
CC1CCN(c2ccc(C(=O)NCc3cccs3)cn2)CC1,,"inconclusive: 18.3 µM [inhibitor, partial curve, poor fit]"
Cn1cc(-c2cc3n(n2)CCC(=O)N3CC(=O)NCc2ccc(Cl)cc2)c2ccccc21,inactive: -8.36% [at 46.1 µM],
Cc1cccc2cc3c(N)c(C(=O)N4CCOCC4)sc3nc12,,active: 11.2 µM
Cc1ccc(NC(=O)c2c(-c3c(F)cccc3Cl)noc2C)cc1F,,"inconclusive: 9.2 µM [inhibitor, partial curve]"
O=C(c1ccc(OC2CCN(CCc3ccccc3)CC2)cc1)N1CCCC1,inactive: -24.5%,
COc1ccc(OC)c(-n2c(=O)c3ccccc3c3ccccc3c2=O)c1,inactive: -4.21%,
Cc1nc(C)c(C(=O)OCC(=O)N(C)c2ccccc2)s1,,"inconclusive: 35.5 µM [activator, partial curve, poor fit]"
Cc1ccc(CCNC(=O)c2c(C)oc3nc(C)nc(N4CCOCC4)c23)cc1,inactive: -17.3% [at 46.1 µM],
Cc1ccc(O)c(NC(=O)c2cc(-c3ccccc3Cl)on2)c1,inactive: 0.655%,
Cc1c(C(=O)Nc2ccccn2)oc2ccc(Br)cc12,,"inconclusive: 35.5 µM [inhibitor, single point]"
COc1ccc(NC(=O)c2cc(C)no2)cc1OC,,"inconclusive: 35.5 µM [activator, single point]"
Cc1ccc(NC(=O)c2c(C)oc3ccc(O)c(CN4CCCCCC4)c23)cc1,,"inconclusive: 35.5 µM [inhibitor, single point]"
Cc1cccc(NS(=O)(=O)c2cc(C(=O)OCC(=O)Nc3cc(C)on3)ccc2C)c1,,"inconclusive: 16.4 µM [activator, partial curve, poor fit]"
CCOC(=O)c1c(NC(=O)CSc2nc3ccccc3s2)sc(C(C)=O)c1C,,"inconclusive: 4.61 µM [inhibitor, partial curve, poor fit]"
CC(C)S(=O)(=O)c1oc(-c2cccs2)nc1S(=O)(=O)c1ccc(F)cc1,,"inconclusive: 10 µM [inhibitor, partial curve, poor fit]"
COc1cc(/C=N/NC(=O)c2ccc(CN(C)S(=O)(=O)c3ccc(C)cc3)cc2)ccc1O,,"inconclusive: 7.94 µM [inhibitor, partial curve]"
COCCn1nnnc1C(c1ccc(C)cc1)N1CCN(Cc2ccc3c(c2)OCO3)CC1 (stereo not given),inactive: 0.769%,
COc1cc(SC)ccc1C(=O)OCC(=O)NCCC1=CCCCC1,,"inconclusive: 0.141 µM [inhibitor, partial curve, poor fit]"
N=c1sccn1CC(=O)Nc1ccccc1Sc1ccccc1,,"inconclusive: 35.5 µM [inhibitor, single point]"

Structure (SMILES),"activity change, negative = inhibition",Potency
Cc1c(CC(=O)NCCc2ccccc2F)c(=O)oc2cc(O)c(Cl)cc12,inactive: -3.07% [at 46.1 µM],
CCOC(=O)CN1C(c2ccccc2O)Nc2ccc(Br)cc2C1c1ccccc1 (stereo not given),,"inconclusive: 1.26 µM [inhibitor, single point]"
CCCCN(C)CC(O)Cn1cc(/C=C/C(=O)c2ccc(C)cc2)c2ccccc21 (stereo not given),,"inconclusive: 35.5 µM [inhibitor, single point]"
O=C(NCc1ccc2c(c1)OCO2)C(=O)NCC1OCCN1S(=O)(=O)c1ccccc1 (stereo not given),,"inconclusive: 14.1 µM [inhibitor, partial curve]"
O=C(NC(=S)Nc1ccc(CN2CCOCC2)cc1)c1cccc(F)c1,,"inconclusive: 31.6 µM [inhibitor, single point]"
O=C(Nc1ccc(C(=O)OCc2cc(=O)n3c4c(sc3n2)CCCC4)cc1)c1ccc(Cl)cc1,,"inconclusive: 5.62 µM [inhibitor, single point]"
Cc1ccc(-n2c(SCC(=O)NNC(=S)Nc3ccccc3)nc3ccccc3c2=O)cc1,inactive: 0.681%,
COc1cc2c(cc1OC)-c1cc(Nc3ccc(C(=O)O)cc3)nc(=O)n1CC2,,"inconclusive: 22.4 µM [activator, single point]"
COc1ccc(NCC(=O)N/N=C2\CCCC(C)C2)cc1 (stereo not given),,"inconclusive: 9.2 µM [inhibitor, partial curve, poor fit]"
CCOc1ccccc1-c1nc(-c2ccc(NC(=O)Cc3ccccc3OC)cc2)no1,inactive: 7.95%,
COC(=O)c1ccc(C)c(NS(=O)(=O)c2ccc3c(c2)OCCO3)c1,,"inconclusive: 0.58 µM [inhibitor, partial curve, poor fit]"
O=c1c2cnn(-c3ccc(F)cc3)c2ncn1Cc1cccnc1,inactive: -13.5%,
Cc1nc2ccccc2c(=O)n1-c1cccnc1,,"inconclusive: 0.0651 µM [inhibitor, partial curve, poor fit]"
O=Cc1cn(Cc2cccc(F)c2)c2ccccc12,,"inconclusive: 10.3 µM [inhibitor, partial curve]"
Cc1ccc(C)c(N2CCN(C(=O)CC3Sc4ccccc4NC3=O)CC2)c1 (stereo not given),,"inconclusive: 35.5 µM [inhibitor, single point]"
CCN(CC)C(=O)c1cc2sc3ccccc3c2s1,,"inconclusive: 1.26 µM [activator, partial curve]"
CCC(=O)Nc1ccc(C(=O)CSc2nnc(-c3ccccc3F)n2CCc2ccccc2)cc1,,"inconclusive: 12.6 µM [inhibitor, single point]"
Cc1occc1-c1nnc(SCC(=O)Nc2ccc(F)cc2)n1Cc1ccccc1,,"inconclusive: 15.8 µM [inhibitor, single point]"
NC(=O)c1ccccc1N/C=C/C(=O)c1cccs1,,"inconclusive: 35.5 µM [inhibitor, single point]"
O=C(CSc1nc2ccccc2n1CCc1ccccc1)c1ccc(O)c(O)c1,inactive: -13.3%,
COc1ccc(NC(=O)c2cc(S(=O)(=O)N3CCOCC3)cs2)cc1,,"inconclusive: 35.5 µM [inhibitor, single point]"
CC(C)c1csc(CN2CCCC(CNC(=O)c3cccc4ccccc34)C2)n1 (stereo not given),,"inconclusive: 7.94 µM [inhibitor, partial curve, poor fit]"
